The target in this assay is C3b (UniProt P01024). In words: ELISA, C3b immobilised, serial dilutions of hFH, anti-FH detection. A general note: In an ELISA, binding on a coated surface is turned into a signal by an enzyme label.

Chains of the proteins cited; added tags and fusions are not shown. Lines headed by an entry give the natural chain unless they say otherwise; changes in a name come on top.
UniProt P01024: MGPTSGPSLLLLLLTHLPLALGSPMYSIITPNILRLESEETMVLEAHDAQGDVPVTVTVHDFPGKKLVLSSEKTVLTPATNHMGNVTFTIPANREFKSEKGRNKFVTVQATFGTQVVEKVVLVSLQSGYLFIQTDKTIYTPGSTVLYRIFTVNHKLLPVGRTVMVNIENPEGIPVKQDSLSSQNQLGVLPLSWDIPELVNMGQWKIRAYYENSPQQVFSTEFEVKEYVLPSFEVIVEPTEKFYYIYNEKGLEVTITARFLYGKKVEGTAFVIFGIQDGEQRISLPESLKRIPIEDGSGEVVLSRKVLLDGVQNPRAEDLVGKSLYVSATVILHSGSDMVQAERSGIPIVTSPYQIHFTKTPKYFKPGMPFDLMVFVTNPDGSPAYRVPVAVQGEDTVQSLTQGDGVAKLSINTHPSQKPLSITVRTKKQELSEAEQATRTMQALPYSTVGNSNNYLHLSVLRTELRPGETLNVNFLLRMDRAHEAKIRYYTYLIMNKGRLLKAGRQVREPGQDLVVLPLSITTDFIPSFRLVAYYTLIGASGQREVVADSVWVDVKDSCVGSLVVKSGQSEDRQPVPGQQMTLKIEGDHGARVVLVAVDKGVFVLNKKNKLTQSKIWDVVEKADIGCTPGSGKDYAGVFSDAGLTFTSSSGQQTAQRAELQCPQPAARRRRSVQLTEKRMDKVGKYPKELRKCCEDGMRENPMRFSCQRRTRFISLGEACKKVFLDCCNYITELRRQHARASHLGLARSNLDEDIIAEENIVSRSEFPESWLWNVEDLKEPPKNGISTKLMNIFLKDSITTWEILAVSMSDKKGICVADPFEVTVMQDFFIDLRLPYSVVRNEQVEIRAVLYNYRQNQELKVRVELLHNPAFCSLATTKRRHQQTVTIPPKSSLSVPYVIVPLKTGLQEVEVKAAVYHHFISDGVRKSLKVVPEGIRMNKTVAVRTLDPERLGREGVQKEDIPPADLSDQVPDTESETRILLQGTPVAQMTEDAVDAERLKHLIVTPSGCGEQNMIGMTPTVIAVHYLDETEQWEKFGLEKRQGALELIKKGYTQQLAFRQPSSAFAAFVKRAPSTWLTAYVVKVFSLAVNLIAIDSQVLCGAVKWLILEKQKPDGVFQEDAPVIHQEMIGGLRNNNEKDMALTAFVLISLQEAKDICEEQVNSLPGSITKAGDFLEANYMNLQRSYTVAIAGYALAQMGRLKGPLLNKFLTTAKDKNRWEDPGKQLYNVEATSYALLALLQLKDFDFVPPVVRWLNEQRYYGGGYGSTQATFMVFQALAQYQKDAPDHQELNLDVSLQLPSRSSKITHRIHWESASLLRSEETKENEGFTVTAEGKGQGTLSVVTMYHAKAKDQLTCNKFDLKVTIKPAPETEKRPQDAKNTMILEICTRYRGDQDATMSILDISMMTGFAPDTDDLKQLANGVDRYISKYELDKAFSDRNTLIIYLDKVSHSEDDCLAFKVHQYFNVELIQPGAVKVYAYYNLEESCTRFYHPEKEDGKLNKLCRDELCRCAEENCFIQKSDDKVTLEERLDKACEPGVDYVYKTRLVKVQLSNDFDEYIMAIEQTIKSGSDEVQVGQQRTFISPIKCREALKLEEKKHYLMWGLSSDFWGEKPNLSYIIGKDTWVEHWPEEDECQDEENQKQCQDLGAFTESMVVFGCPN
UniProt P08603: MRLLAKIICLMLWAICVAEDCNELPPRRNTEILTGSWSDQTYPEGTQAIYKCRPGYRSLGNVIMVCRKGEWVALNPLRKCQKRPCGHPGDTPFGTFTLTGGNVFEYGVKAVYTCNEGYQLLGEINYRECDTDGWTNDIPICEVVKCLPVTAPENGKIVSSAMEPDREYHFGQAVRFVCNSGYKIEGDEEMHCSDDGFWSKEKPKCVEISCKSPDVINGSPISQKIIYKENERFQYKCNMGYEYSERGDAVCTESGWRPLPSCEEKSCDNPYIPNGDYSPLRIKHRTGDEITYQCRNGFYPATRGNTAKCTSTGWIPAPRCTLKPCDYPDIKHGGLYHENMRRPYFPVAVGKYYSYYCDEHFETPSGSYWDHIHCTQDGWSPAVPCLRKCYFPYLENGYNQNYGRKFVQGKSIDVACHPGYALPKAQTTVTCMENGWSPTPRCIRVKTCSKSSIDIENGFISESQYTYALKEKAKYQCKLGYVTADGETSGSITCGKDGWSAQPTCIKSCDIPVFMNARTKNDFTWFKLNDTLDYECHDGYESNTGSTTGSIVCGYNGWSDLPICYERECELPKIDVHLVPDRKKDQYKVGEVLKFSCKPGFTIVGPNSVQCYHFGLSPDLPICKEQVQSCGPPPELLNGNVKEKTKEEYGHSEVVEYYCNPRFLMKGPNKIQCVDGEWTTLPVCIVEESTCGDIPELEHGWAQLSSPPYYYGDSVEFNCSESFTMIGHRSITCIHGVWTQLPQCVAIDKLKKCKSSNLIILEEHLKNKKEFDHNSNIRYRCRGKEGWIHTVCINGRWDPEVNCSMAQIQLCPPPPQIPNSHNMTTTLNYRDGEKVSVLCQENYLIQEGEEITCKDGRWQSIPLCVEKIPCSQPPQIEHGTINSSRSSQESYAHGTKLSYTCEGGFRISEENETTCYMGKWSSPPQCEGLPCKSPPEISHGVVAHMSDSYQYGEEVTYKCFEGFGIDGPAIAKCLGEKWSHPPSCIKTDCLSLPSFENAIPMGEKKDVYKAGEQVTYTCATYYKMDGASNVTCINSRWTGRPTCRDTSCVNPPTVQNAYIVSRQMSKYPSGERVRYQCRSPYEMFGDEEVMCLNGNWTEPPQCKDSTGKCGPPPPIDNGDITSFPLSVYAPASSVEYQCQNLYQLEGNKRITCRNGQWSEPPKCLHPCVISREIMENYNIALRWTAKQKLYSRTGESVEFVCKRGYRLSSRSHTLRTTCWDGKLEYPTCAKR

Among the data in patent US20190300589A1 are binding values, retold here.

Results are given in words; binding and its absence hold for the method and conditions named. Some binding calls cover weakened binding; strength is not graded here.

Turning to “human plasma derived Factor H (hFH) (from UniProt P08603 19-1231)”, the binding result is reported as “binds”.
